These are literature values, as cited in patent US12616687B2, “Treatment of viral infection, disease or disorder using a selective sir agonist” (Prilenia Neurotherapeutics Ltd., priority 2020, dated 2026).

The data set concerns SARS-CoV-2. To be noted: viral titer assay; cited from earlier work.

Each structure is given as a SMILES string.

In the case of `CN1CCC[C@@H]1CCO[C@](C)(c1ccccc1)c1ccc(Cl)cc1` [Clemastine], the “concentration at which anti-viral activity was demonstrated” value was 10 µM.
